Assay results reported in patent US20160108100A1.
These are yes or no findings as the source states them, for the method shown. Some entries that bind do so weakly or less than the wild type. Tags and fused reporters may be left off the sequences shown.

Protein sequences, listed by entry. Tags and fused reporters are not part of them.
UniProt P07814: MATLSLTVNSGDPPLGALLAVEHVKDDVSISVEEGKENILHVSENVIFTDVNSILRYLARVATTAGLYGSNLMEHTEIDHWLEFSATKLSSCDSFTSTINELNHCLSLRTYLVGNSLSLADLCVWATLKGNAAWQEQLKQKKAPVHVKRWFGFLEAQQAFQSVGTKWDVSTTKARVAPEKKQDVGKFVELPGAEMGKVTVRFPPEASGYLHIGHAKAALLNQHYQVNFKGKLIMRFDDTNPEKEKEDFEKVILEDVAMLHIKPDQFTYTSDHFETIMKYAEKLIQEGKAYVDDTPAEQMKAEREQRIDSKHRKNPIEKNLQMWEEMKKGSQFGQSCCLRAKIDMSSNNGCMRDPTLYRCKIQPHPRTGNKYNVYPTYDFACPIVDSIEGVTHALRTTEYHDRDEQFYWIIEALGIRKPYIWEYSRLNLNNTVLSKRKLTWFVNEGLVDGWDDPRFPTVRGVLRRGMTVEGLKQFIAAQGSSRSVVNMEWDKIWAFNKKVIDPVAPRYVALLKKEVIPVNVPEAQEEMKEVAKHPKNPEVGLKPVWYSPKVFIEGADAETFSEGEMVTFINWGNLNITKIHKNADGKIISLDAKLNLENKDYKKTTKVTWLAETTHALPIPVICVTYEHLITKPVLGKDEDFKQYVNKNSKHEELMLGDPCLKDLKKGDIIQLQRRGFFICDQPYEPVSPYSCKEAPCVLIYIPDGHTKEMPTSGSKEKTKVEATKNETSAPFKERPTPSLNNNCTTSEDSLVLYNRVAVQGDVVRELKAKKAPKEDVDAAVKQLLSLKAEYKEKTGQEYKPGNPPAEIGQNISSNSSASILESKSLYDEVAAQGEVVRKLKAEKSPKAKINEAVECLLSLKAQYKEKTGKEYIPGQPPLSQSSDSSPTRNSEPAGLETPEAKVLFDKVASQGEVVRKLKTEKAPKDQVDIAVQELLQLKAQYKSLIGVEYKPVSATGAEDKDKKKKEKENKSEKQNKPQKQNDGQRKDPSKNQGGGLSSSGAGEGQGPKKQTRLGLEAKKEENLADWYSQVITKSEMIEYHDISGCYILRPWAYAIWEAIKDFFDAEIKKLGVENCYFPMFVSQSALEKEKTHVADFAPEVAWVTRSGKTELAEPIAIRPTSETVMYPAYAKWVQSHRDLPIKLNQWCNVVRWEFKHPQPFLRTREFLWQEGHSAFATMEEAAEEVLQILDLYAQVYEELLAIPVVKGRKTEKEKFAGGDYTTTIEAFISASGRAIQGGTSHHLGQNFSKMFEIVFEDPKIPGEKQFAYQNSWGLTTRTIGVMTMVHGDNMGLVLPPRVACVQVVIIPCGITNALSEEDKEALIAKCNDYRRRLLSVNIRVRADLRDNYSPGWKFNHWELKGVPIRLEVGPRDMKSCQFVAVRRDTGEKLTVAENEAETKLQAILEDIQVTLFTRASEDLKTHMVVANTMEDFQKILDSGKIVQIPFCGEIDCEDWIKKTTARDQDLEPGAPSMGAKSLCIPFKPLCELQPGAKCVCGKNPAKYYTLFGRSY

How the values were obtained:
[1] = biological target: Glutamyl-Prolyl tRNA synthetase (EPRS) (human) (UniProt P07814); assay: anti-FLAG immunoprecipitation, anti-EPRS western blot
[2] = biological target: Glutamyl-Prolyl tRNA synthetase (EPRS) (human) (UniProt P07814); assay: anti-FLAG immunoprecipitation from cell extracts, anti-EPRS western blot
[3] = biological target: Glutamyl-Prolyl tRNA synthetase (EPRS) (human) (UniProt P07814); assay: immunoprecipitation with flagged EN1 as bait, anti-EPRS detection

binding [1]: binds
binding [2]: binds
binding [3]: binds
B1: Full length EN1 with FLAG tag (protein, human)
chain: MEEQQPEPKSQRDSALGAAAAATPGGLSLSLSPGASGSSGSGSDGDSVPVSPQPAPPSPPAAPCLPPLAHHPHLPPHPPPPPPQHLAAPAHQPQPAAQLHRTTNFFIDNILRPDFGCKKEQPPPQLLVAAAARGGAGGGGRVERDRGQTAAGRDPVHPLGTRAPGAASLLCAPDANCGPPDGSQPAAAGAGASKAGNPAAAAAAAAAAVAAAAAAAAAKPSDTGGGGSGGGAGSPGAQGTKYPEHGNPAILLMGSANGGPVVKTDSQQPLVWPAWVYCTRYSDRPSSGPRTRKLKKKKNEKEDKRPRTAFTAEQLQRLKAEFQANRYITEQRRQTLAQELSLNESQIKIWFQNKRAKIKKATGIKNGLALHLMAQGLYNHSTTTVQDKDESEDYKDDDDK
